According to patent US20110300171A1:
These are yes or no findings as the source states them, for the method shown. Some entries that bind do so weakly or less than the wild type.

Sequences of proteins named here, by UniProt entry; tags and fusion partners are left off. Residues count along the entry.
UniProt P08603, residues 19-1231: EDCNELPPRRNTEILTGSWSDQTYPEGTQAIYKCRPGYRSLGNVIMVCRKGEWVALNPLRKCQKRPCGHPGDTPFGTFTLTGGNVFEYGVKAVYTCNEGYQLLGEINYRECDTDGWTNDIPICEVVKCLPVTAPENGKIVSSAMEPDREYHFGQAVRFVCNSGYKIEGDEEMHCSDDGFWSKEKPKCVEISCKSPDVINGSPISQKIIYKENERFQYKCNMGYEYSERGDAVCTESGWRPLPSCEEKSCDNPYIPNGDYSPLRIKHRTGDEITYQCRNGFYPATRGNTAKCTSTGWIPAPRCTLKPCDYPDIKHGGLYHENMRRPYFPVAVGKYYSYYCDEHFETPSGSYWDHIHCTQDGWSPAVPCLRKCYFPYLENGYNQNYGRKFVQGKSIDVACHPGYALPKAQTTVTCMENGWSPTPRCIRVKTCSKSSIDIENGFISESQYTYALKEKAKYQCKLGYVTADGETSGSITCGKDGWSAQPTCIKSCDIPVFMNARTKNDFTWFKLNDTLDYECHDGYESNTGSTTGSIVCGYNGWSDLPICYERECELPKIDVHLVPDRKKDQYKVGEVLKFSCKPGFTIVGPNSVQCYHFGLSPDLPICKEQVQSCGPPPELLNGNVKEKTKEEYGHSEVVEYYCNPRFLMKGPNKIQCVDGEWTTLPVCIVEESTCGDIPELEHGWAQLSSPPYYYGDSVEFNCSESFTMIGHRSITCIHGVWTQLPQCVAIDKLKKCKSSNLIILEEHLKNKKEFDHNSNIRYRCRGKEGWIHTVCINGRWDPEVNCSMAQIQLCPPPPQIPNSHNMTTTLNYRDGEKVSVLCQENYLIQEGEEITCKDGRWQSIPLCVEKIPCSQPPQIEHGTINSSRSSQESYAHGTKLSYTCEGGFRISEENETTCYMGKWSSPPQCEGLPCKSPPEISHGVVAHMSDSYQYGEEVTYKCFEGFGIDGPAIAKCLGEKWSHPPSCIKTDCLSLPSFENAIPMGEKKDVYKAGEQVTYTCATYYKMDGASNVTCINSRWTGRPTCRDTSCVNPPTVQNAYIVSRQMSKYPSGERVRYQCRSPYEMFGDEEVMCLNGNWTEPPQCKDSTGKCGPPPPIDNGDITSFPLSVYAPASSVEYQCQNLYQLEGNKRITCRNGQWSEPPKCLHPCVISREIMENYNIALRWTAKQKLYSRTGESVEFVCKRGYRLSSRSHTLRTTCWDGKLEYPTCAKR
UniProt P26022, residues 18-381: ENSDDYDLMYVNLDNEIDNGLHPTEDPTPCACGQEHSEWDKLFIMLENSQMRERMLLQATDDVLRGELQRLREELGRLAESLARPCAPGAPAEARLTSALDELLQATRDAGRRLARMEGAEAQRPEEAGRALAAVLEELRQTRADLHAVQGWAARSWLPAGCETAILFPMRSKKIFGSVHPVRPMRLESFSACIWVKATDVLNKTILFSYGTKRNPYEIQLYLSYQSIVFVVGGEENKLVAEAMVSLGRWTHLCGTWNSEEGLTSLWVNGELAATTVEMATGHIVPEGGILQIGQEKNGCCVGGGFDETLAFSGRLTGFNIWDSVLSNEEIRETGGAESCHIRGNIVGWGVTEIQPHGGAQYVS

Target: human factor H (human) (UniProt P08603)
Experiment: competition in plate binding assay; bPTX3 varied against coated NMB1870 or NMB0667 (FIGS. 4 and 5)

bPTX3 (from UniProt P26022 18-381) (ligand)
binding: binds
